Earlier results as cited in patent US20050095643A1 (priority 1997, published 2005).
For at least one compound, name, drawing or mass did not settle the structure.

Test system: xyl/tet promoter
Conditions: B. subtilis, 0.4 μg/ml of Tc, within three hours

For `CN(C)[C@@H]1C(O)=C(C(N)=O)C(=O)[C@@]2(O)C(O)=C3C(=O)c4c(O)cccc4[C@@](C)(O)[C@H]3C[C@@H]12` [tetracycline], the induction is listed as 100 fold.
